Measurements taken from patent publication US8614202B2, “2α-methyl and 2β-methyl analogs of 19,26,27-trinor-(20S)-1α-hydroxyvitamin D3 and their uses” (Wisconsin Alumni Research Foundation, priority 2004, dated 2013).

Test system: 24-hydroxylase (24Ohase) gene promoter in ROS 17/2.8 (bone) cells
Experiment: In vitro transcription assay (24-hydroxylase promoter luciferase reporter)
Format: cell-based
Settings: ROS 17/2.8 cells, 24Ohase-luciferase, sixteen hours after dosing; read-out: EC50, transcriptional activity in bone cells
Method: In Vitro Transcription Assay
Transcription activity was measured in ROS 17/2.8 (bone) cells that were stably transfected with a 24-hydroxylase (24Ohase) gene promoter upstream of a luciferase reporter gene (Arbour et al., 1998). Cells were given a range of doses. Sixteen hours after dosing the cells were harvested and luciferase activities were measured using a luminometer. • RLU=relative luciferase units. Intestinal Calcium Transport and Bone Calcium Mobilization

C=C1/C(=C\C=C2/CCC[C@]3(C)[C@@H]([C@H](C)CCCC(C)(C)O)CC[C@@H]23)C[C@@H](O)C[C@@H]1O [1,25(OH)2D3, 1α,25-dihydroxyvitamin D3, reference compound]
EC50: 0.19 nM
